PubChem BioAssay AID1347075 (National Center for Advancing Translational Sciences (NCATS), 2019)
Where “and” joins values, the source holds several entries; their conditions need not be identical. Equal entries are not always repeated. Screen size: about 400,000 compounds; about 5,500 (1.4%) were called active. Inconclusive results, whose numbers are uncertain, are shown with a selection of clear calls. Calls come from the whole dose curve; as a rule, active = well fitted cell-killing curve with a large enough effect; inconclusive = small, poorly fitted or top-dose-only effect, or effect the other way; inactive = flat fitted curve, though single readings scatter. A potency beside an inconclusive call is a rough fit, not a confirmed value.

Experiment: qHTS assay for MDR1-selective chemotherapeutics: Primary screen using the parental adenocarcinoma cell KB-3-1; note: nearly all actives have a fitted effect of over 60% in size
Settings: KB-3-1 viability, CellTiter-Glo ATP luminescence, 72 h; activity change, negative = cytotoxic: at 46.1 µM (top of the series)
Outline: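 Multi-concentration cytotoxicity screen in KB-3-1 cells grown in DMEM lacking phenol red with 10% FBS. After 72 h at 37 °C with compound, ATP-dependent luminescence was recorded.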
% is set by controls: 0 for no effect and ±100 for the full control effect; potency is the fitted concentration of half-maximal effect.

With COc1cc(OC)nc(Nc2nc(C(N)Cc3ccccc3)cs2)n1 (centres undefined) as the molecule, how does the Potency read?
The Potency was inconclusive: 29.1 µM [cytotoxic, single point].

With Cc1nc2nc(CNC(=O)c3cccc(F)c3)nn2c(C)c1CCC(=O)Nc1ccc(F)cc1 as the molecule, how does the Potency read?
Its Potency is “inactive”.

With COC(=O)Nc1ccc(S(=O)(=O)Nc2cccc3ccccc23)cc1 as the molecule, how does the Potency read?
The Potency was inconclusive: 20.6 µM [cytotoxic, single point].

Which Potency does the source give for O=C(C1CCCN(S(=O)(=O)c2ccc(Br)cc2)C1)N1CCN(Cc2ccccc2)CC1 (centres undefined) here?
The Potency was inconclusive: 20.6 µM [cytotoxic, single point].

With CCc1nc2c(OCc3ccc(C(F)(F)F)cc3)cccn2c1N(C)C(=O)c1ccco1 as the molecule, how does the Potency read?
The Potency was “inactive”.

With O=C1C=C(Nc2ccc(Cl)cc2)CC(c2ccccc2)C1 (centres undefined) as the molecule, how does the Potency read?
Its Potency is inconclusive: 16.4 µM [cytotoxic, partial curve, poor fit].

Which Potency does the source give for COc1ccccc1Nc1nc(-c2c(C)nc3ncccn23)cs1 here?
The Potency was inconclusive: 29.1 µM [cytotoxic, single point].

Which Potency does the source give for CN(C)S(=O)(=O)c1ccc(SCC(=O)N2CC(=O)Nc3ccccc32)nc1 here?
The Potency was “inactive”.

For CC(=O)Oc1ccc2c(c1)C(=O)CCCCCC(=O)O2, which Potency is on record?
The Potency was inconclusive: 3.26 µM [cytotoxic, partial curve, poor fit].

With COc1cc(C2c3cc4c(cc3C(O)C3COC(=O)C23)OCO4)cc(OC)c1OC (centres undefined) as the molecule, how does the Potency read?
The Potency was active: 146 nM and active: 164 nM.

For CCCS(=O)(=O)NC(=O)C1(C)CCN(C(=O)c2cc(-c3cccs3)oc2C)C1 (centres undefined), which Potency is on record?
The Potency was “inactive”.

Which Potency does the source give for Cc1nc(SC(C)C(=O)NCC2CCCO2)c2cc(-c3ccccc3)sc2n1 (centres undefined) here?
Its Potency is inconclusive: 4.11 µM [cytotoxic, full curve].

With Cc1cccc(-c2cc(C(=O)Nc3cccnc3)c3ccccc3n2)c1 as the molecule, how does the Potency read?
The Potency was inconclusive: 29.1 µM [rising, single point].

With Cc1cc2nc(-c3ccc(F)cc3)c(Cc3cccc(Cl)c3)n2c(C)c1Br as the molecule, how does the Potency read?
The Potency was inconclusive: 25.9 µM [cytotoxic, single point].

Which Potency does the source give for CN(C)CCCNc1oc(-c2ccc(Cl)cc2)nc1C#N here?
The Potency was inconclusive: 16.4 µM [cytotoxic, partial curve, poor fit].

Which Potency does the source give for C=CC[C@H](CC(=O)N(CCO)Cc1ccccc1)C(=O)N[C@H](COC(=O)[C@@H](CC=C)CC(=O)OC(C)(C)C)Cc1ccccc1 here?
The Potency was inconclusive: 32.6 µM [cytotoxic, single point].

Which Potency does the source give for Cc1cc(C=C2C(=O)c3ccccc3C2=O)c(C)n1-c1ccc(Cl)cc1 here?
The Potency was inconclusive: 16.4 µM [cytotoxic, single point].

With COc1cnc(-c2ccccn2)nc1NC(C)C as the molecule, how does the Potency read?
The Potency was inconclusive: 20.6 µM [cytotoxic, partial curve, poor fit].

With CN[C@H]1C[C@H]2c3[nH]c4ccc(-c5ccc(OC)cc5)cc4c3CCN2C(=O)[C@H]1[C@H](C)O as the molecule, how does the Potency read?
The Potency was active: 5.8 µM.

For COc1cccc(/C=N/Nc2nc3ccccc3[nH]2)c1O, which Potency is on record?
The Potency was active: 5.8 µM.

Which Potency does the source give for COc1ccc(-c2cc(C(F)(F)F)n3nc(C(=O)OC(C)C)cc3n2)cc1 here?
The Potency was “inactive”.

For O=C(COC(=O)c1ccccc1C(=O)c1ccc(Cl)c([N+](=O)[O-])c1)NC1CC1, which Potency is on record?
The Potency was active: 8.2 µM.

Which Potency does the source give for CC(=O)c1c(C)[nH]c(C(=O)OCC(=O)Nc2cc(C(F)(F)F)ccc2N2CCOCC2)c1C here?
Its Potency is inconclusive: 18.4 µM [cytotoxic, single point].

Which Potency does the source give for CN1C(=O)/C(=C\c2ccc(OC(=O)c3ccco3)cc2)SC1=S here?
Its Potency is inconclusive: 8.2 µM [rising, partial curve, poor fit].

Which Potency does the source give for O=C1NC[C@H](CCCCN2C[C@@H](Cc3ccccc3)N(Cc3ccccc3)C(=O)C2=O)N(CCC2CCCCC2)C1=O here?
Its Potency is “inactive”.

For COC(=O)N/N=C/c1ccc(-c2cc(Cl)ccc2Cl)o1, which Potency is on record?
The Potency was inconclusive: 23.1 µM [cytotoxic, single point].

For OC(CBr)C[n+]1cccc2cc(Br)ccc21 (centres undefined), which Potency is on record?
The Potency was inconclusive: 29.1 µM [cytotoxic, partial curve, poor fit].

With CCOc1ccccc1CNC(=O)C1CCN(c2nnc(C)c3c(C)n(-c4ccc(C)cc4)nc23)CC1 as the molecule, how does the Potency read?
Its Potency is inconclusive: 29.1 µM [cytotoxic, single point].

Which Potency does the source give for Cc1ccccc1NC(=O)C(C)OC(=O)C1CCCO1 (centres undefined) here?
Its Potency is “inactive”.

With CNC(=O)c1ccc(-c2nc(CN3CCc4ccccc43)c(C)o2)cc1 as the molecule, how does the Potency read?
The Potency was “inactive”.

Which Potency does the source give for CC(=O)NCc1ccc(C(=O)CCl)s1 here?
The Potency was inconclusive: 23.1 µM [cytotoxic, single point].

With CCC1CCCCN1C(=O)CSc1n[nH]c(-c2ccccc2)n1 (centres undefined) as the molecule, how does the Potency read?
Its Potency is “inactive”.

Which Potency does the source give for Clc1ccccc1CN(Cc1ccccc1)C(c1cccs1)c1nnnn1C1CCCC1 (centres undefined) here?
The Potency was inconclusive: 29.1 µM [cytotoxic, single point].

With O=c1[nH]c2ccccc2n2c(-c3ccccc3)nnc12 as the molecule, how does the Potency read?
Its Potency is inconclusive: 16.4 µM [rising, partial curve, poor fit].

Which Potency does the source give for Cc1ccc(C(=O)c2cn[nH]c2-c2ccccc2O)cc1 here?
The Potency was “inactive”.

Which Potency does the source give for CC(C)NC(=O)c1c(O)c2cccc3c2n(c1=O)CCC3 here?
The Potency was “inactive”.

For CCOC(=O)C1(Cc2ccc(OC)cc2)CCN(C(=O)c2cc(C)nn2C)CC1, which Potency is on record?
The Potency was inconclusive: 6.51 µM [cytotoxic, partial curve].

With COc1ccc(OC)c(C(=O)c2ccc(C(=O)Nc3ccc(NC(C)=O)cc3)cc2)c1 as the molecule, how does the Potency read?
The Potency was “inactive”.

With CCC(C)C(=O)Nc1ccccc1N1CCN(c2ccc(F)cc2)CC1 (centres undefined) as the molecule, how does the Potency read?
The Potency was inconclusive: 20.6 µM [cytotoxic, single point].

Which Potency does the source give for C=CCN1C=C2C(=O)C(C)(OC(=O)CC)C(=O)C=C2C=C1CCCC (centres undefined) here?
Its Potency is inconclusive: 0.0116 µM [rising, full curve].

With Cc1nc2ccccc2c2nc(NC(=O)Cc3ccccc3)nn12 as the molecule, how does the Potency read?
Its Potency is inconclusive: 29.1 µM [rising, single point].

Which Potency does the source give for Cc1ccccc1CN1CCC(CNC(=O)c2cc3ccc4cccnc4c3[nH]2)CC1 here?
The Potency was “inactive”.

Which Potency does the source give for NC(=O)[C@@H]1CCNc2c(I)cc([N+](=O)[O-])cc2C(=O)N[C@@H](CCC(=O)O)C(=O)N[C@@H](CO)C(=O)N1 here?
The Potency was inconclusive: 16.4 µM [rising, single point].

For NS(=O)(=O)c1ccc(NC(=O)Cn2nc(C(=O)O)c3ccccc3c2=O)cc1, which Potency is on record?
Its Potency is inconclusive: 0.731 µM [rising, partial curve, poor fit].

With Nc1nccnc1C(=O)OCC(=O)c1ccc[nH]1 as the molecule, how does the Potency read?
Its Potency is “inactive”.

For O=C(NCCc1ccc(Cl)cc1)C1CCCN1C(=O)Nc1ccccc1 (centres undefined), which Potency is on record?
The Potency was “inactive”.

With O=C1CCc2cc([S+](=O)([O-])Nc3ccc(N[S+](=O)([O-])c4ccc5c(c4)CCC(=O)N5)cc3)ccc2N1 as the molecule, how does the Potency read?
Its Potency is “inactive”.

Which Potency does the source give for COc1ccc(S(=O)(=O)Nc2cc(C(=O)NC(C)C)ccc2N2CCOCC2)cc1 here?
Its Potency is inconclusive: 29.1 µM [cytotoxic, single point].

Which Potency does the source give for O=C(CCNS(=O)(=O)c1ccccc1)NCC1CCCCC1 here?
The Potency was “inactive”.

Which Potency does the source give for COc1cccc2c1OC[C@@H](CO)[C@H]2N(C)C(=O)Nc1ccc(Cl)cc1Cl here?
Its Potency is active: 23.1 µM.

For C=CCNC(=O)COC(=O)c1oc2ccccc2c1CSC1CCCCC1, which Potency is on record?
The Potency was inconclusive: 0.013 µM [rising, full curve].

Which Potency does the source give for CCC(O)(CCN1CCCCC1)c1ccccc1 (centres undefined) here?
The Potency was “inactive”.

For CC1CCC(NC(=O)C(NS(=O)(=O)c2ccc(Br)cc2)C(C)C)CC1 (centres undefined), which Potency is on record?
The Potency was “inactive”.

Which Potency does the source give for COc1ccccc1NS(=O)(=O)c1cccc(NC(=O)Nc2cccc(Cl)c2)c1 here?
Its Potency is inconclusive: 18.4 µM [cytotoxic, single point].

For O=C(OC12CC3CC(CC(C3)C1)C2)c1ccc(NCc2cc(O)ccc2O)cc1, which Potency is on record?
Its Potency is active: 7.31 µM.

Which Potency does the source give for Oc1c(Br)cc(Br)cc1/C=N/NC(=S)N[C@H]1CC2C=CC1C2 (some centres undefined) here?
Its Potency is inconclusive: 18.4 µM [cytotoxic, single point].

With OCCn1c(-c2ccc(F)cc2)csc1=Nc1ccccc1 as the molecule, how does the Potency read?
The Potency was inconclusive: 18.4 µM [cytotoxic, single point].

Which Potency does the source give for CCNc1c(NS(=O)(=O)c2ccc(OC)c(Cl)c2)c(=O)oc2ccccc12 here?
The Potency was inconclusive: 6.51 µM [cytotoxic, full curve, poor fit].

Which Potency does the source give for COCC(=O)N/N=C/c1c(C)[nH]n(-c2ccccc2)c1=O here?
The Potency was “inactive”.

Which Potency does the source give for CCOc1cc(/C=C/C(=O)c2ccc3c(c2)OCCO3)ccc1OCC(=O)N(C)C here?
The Potency was inconclusive: 11.6 µM [cytotoxic, partial curve, poor fit].

Which Potency does the source give for COc1ccc(NC(=S)N=Nc2c(O)[nH]c3ccccc23)cc1 here?
Its Potency is inconclusive: 3.26 µM [cytotoxic, full curve, poor fit].

For C[C@H]1CN([C@@H](C)CO)C(=O)c2cccc(NC(=O)Nc3ccc(C(F)(F)F)cc3)c2O[C@@H]1CN(C)Cc1ccc(Cl)c(Cl)c1, which Potency is on record?
The Potency was inconclusive: 29.1 µM [cytotoxic, single point].

Which Potency does the source give for Cn1c(=S)[nH]c2[nH]c(=O)cnc2c1=O here?
The Potency was inconclusive: 23.1 µM [rising, single point].

Which activity change, negative = cytotoxic does the source give for CCOC(=O)Cc1csc(NC(=O)C(CC(C)C)NC(=O)C2CCCCC2)n1 (centres undefined) here?
Its activity change, negative = cytotoxic is inconclusive: -25.9%.

Which Potency does the source give for Nc1nc(NCCc2ccccc2)nc(NCc2ccccc2)c1[N+](=O)[O-] here?
Its Potency is inconclusive: 2.06 µM [cytotoxic, partial curve, poor fit].

For CC1(C)CC(=O)C2=C(C1)OC(N)=C(C#N)C2c1cn(-c2ccccc2)nc1-c1ccc(F)cc1 (centres undefined), which Potency is on record?
The Potency was inconclusive: 29.1 µM [cytotoxic, single point].

Which Potency does the source give for Cc1cccc(N=N/C(=C\O)C(=O)c2cccs2)c1 here?
Its Potency is “inactive”.

Which Potency does the source give for CCOC(=O)c1ccc(NC(=O)Nc2ccon2)cc1 here?
The Potency was active: 0.58 µM.

Which Potency does the source give for O=C(NCc1cccs1)c1cc(-c2ccccc2)nn1CC1CC(c2cccc([N+](=O)[O-])c2)=NO1 (centres undefined) here?
The Potency was “inactive”.
